By UniProt entry, the sequences of proteins in these tests, tags left out. Where a name states a change or a piece, a line headed by the entry shows the natural chain unless it says otherwise.
UniProt P04608: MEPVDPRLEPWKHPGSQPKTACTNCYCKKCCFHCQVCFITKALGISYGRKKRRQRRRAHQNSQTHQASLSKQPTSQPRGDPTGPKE

According to patent US20250295795A1, “PEPTIDE” (priority 2021, published 2025):

Key:
[1] = system: rab5a-RFP; assay: Co-localization of trimer with early endosomal marker rab5a-RFP in transfected Hela cells; assay type: cell-based, human; settings: for co-localization analysis M1 / co-localization analysis M2 / co-localization analysis R: 1 μM, 15 min, pre-wash
[2] = system: HeLa cells; assay: Time course of uptake in Hela cells (continuous live cell confocal microscopy, ROI profile analysis); assay type: cell-based, human; settings: 1 μM; first 15 min
Method: To better understand the mechanism by which tri-Tat A and tri-cTat B enter the cytosol and the nucleus, we investigated the uptake kinetics of the conjugates during the first 15 min after their addition to Hela cells using confocal live cell microscopy. Tri-Tat A (FIG. 3a) or tri-cTat B (FIG. 3b) (1 μM) were added to the cells and images acquired from 1 min to 15 min at 60 sec intervals. The two trimers show distinct uptake patters into Hela cells; to better understand the difference in uptake kinetics, we drew cross sectional profile plots through representative cells treated with tri-Tat A (FIG. 3c) and tri-cTat B (FIG. 3d). […] To investigate whether findings in individual cells also apply to larger populations, we extended the plot profile analysis by designating regions of interest (ROI) corresponding to plasma membrane, cytosol (excluding endosomes), nucleus, and nucleoli along the cross section, using information from brightfield images.^30 Average fluorescence intensities for each ROI, at each time point, in six cells per treatment group were calculated and plotted in FIGS. 3e-3h.
HeLa and CHO cells were cultured in DMEM supplemented with 10% FBS and penicillin/streptomycin. […] Images were analysed using ImageJ software. […]

| Compound | nature of intracellular punctate/vesicular fluorescence by rab5a-RFP co-localization [1] | co-localization analysis M1 [1] | co-localization analysis M2 [1] | co-localization analysis R [1] | route / mechanism of cell entry [2] |
| --- | --- | --- | --- | --- | --- |
| tri-Tat B: AF488-labelled trimer of linear Tat (49-57) peptide on alkyne functionalized scaffold B (RKKRRQRRR; trimer on alkyne scaffold B; AF488 label; UniProt P04608 49-57, looked up, fragment) | endosomal entrapment | 0.5105 | 0.5191 | 0.242 |  |
| N=C(N)NCCC[C@H](NC(=O)[C@H](CCCNC(=N)N)NC(=O)[C@H](CCCNC(=N)N)NC(=O)[C@H](CCC(N)=O)NC(=O)[C@H](CCCNC(=N)N)NC(=O)[C@H](CCCNC(=N)N)NC(=O)[C@H](CCCCN)NC(=O)[C@H](CCCCN)NC(=O)[C@H](CCCNC(=N)N)NC(=O)CCCc1cn(CC(Cn2cc(CCCC(=O)N[C@@H](CCCNC(=N)N)C(=O)N[C@@H](CCCCN)C(=O)N[C@@H](CCCCN)C(=O)N[C@@H](CCCNC(=N)N)C(=O)N[C@@H](CCCNC(=N)N)C(=O)N[C@@H](CCC(N)=O)C(=O)N[C@@H](CCCNC(=N)N)C(=O)N[C@@H](CCCNC(=N)N)C(=O)N[C@@H](CCCNC(=N)N)C(N)=O)nn2)(Cn2cc(CCCC(=O)N[C@@H](CCCNC(=N)N)C(=O)N[C@@H](CCCCN)C(=O)N[C@@H](CCCCN)C(=O)N[C@@H](CCCNC(=N)N)C(=O)N[C@@H](CCCNC(=N)N)C(=O)N[C@@H](CCC(N)=O)C(=O)N[C@@H](CCCNC(=N)N)C(=O)N[C@@H](CCCNC(=N)N)C(=O)N[C@@H](CCCNC(=N)N)C(N)=O)nn2)Cn2cc(CNC(=O)c3ccc4c(c3)C(=O)OC43c4ccc(N)c(S(=O)(=O)O)c4Oc4c3ccc(N)c4S(=O)(=O)O)nn2)nn1)C(N)=O (stereo partly shown) [tri-Tat A] |  | 0.1878 | 0.4714 | 0.264 | translocates directly across the membrane |
| N=C(N)NCCC[C@@H]1NC(=O)[C@H](CCCNC(=N)N)NC(=O)[C@H](CCCNC(=N)N)NC(=O)[C@H](CCC(N)=O)NC(=O)[C@H](CCCNC(=N)N)NC(=O)[C@H](CCCNC(=N)N)NC(=O)[C@H](CCCCN)NC(=O)[C@H](CCCCN)NC(=O)[C@H](CCCNC(=N)N)NC(=O)[C@H](CCCCn2cc(COCC(COCc3cn(CCCCCCNC(=O)c4ccc5c(c4)C(=O)OC54c5ccc(N)c(S(=O)(=O)O)c5Oc5c4ccc(N)c5S(=O)(=O)O)nn3)(COCc3cn(CCCC[C@@H]4NC(=O)CC[C@@H](C(N)=O)NC(=O)[C@H](CCCNC(=N)N)NC(=O)[C@H](CCCNC(=N)N)NC(=O)[C@H](CCCNC(=N)N)NC(=O)[C@H](CCC(N)=O)NC(=O)[C@H](CCCNC(=N)N)NC(=O)[C@H](CCCNC(=N)N)NC(=O)[C@H](CCCCN)NC(=O)[C@H](CCCCN)NC(=O)[C@H](CCCNC(=N)N)NC4=O)nn3)COCc3cn(CCCC[C@@H]4NC(=O)CC[C@@H](C(N)=O)NC(=O)[C@H](CCCNC(=N)N)NC(=O)[C@H](CCCNC(=N)N)NC(=O)[C@H](CCCNC(=N)N)NC(=O)[C@H](CCC(N)=O)NC(=O)[C@H](CCCNC(=N)N)NC(=O)[C@H](CCCNC(=N)N)NC(=O)[C@H](CCCCN)NC(=O)[C@H](CCCCN)NC(=O)[C@H](CCCNC(=N)N)NC4=O)nn3)nn2)NC(=O)CC[C@@H](C(N)=O)NC1=O (stereo partly shown) [tri-cTat B] | vesicle-like structures are endosomes | 0.7127 | 0.6757 | 0.474 | formation of vesicle-like bodies followed by vesicular escape |
